Test results taken from the supplement of paper PMC4604168 (melanoma cell lines).
The other results are listed elsewhere or left out. Repeats are few or missing, and single values can be far off.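 The apoptosis fraction was the count of cleaved-PARP antibody-stained nuclei relative to all DNA-stained nuclei, imaged in 1,536-well plates. Screening doses were set so most cells survived, and baseline and induced cleaved-PARP levels vary greatly across cell lines.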

System: A101D
Test: cleaved PARP positive nuclei fraction relative to DMSO control; melanoma cells; higher = more apoptosis
Conditions: library dose: low library concentration; 72 h

SMILES | cleaved PARP positive nuclei fraction [%]
C=CCn1c(=O)c2cnc(Nc3ccc(N4CCN(C)CC4)cc3)nc2n1-c1cccc(C(C)(C)O)n1 + O=S(=O)(c1ccccc1)N(CC(F)(F)F)c1ccc(C(O)(C(F)(F)F)C(F)(F)F)cc1 [T0901317] (first compound 0.02 µM, partner dose 1.4 µM) | 75.9
O=C(Nc1cccc(Cl)c1)Nc1ncc(CCNc2ncnc3ccsc23)s1 + COc1cc(N2CCC(N3CCN(C)CC3)CC2)ccc1Nc1ncc(Cl)c(Nc2ccccc2S(=O)(=O)C(C)C)n1 [NVP-TAE684] (first compound 0.0008 µM, partner dose 0.08 µM) | 71.4
C[C@]1(c2nc3c(C(N)=O)cccc3[nH]2)CCCN1 [Veliparib] + COc1cc2ncnc(Nc3ccc(Oc4ccccc4)cc3)c2cc1OC [SrcI1] (first compound 1.4 µM, partner dose 2 µM) | 246
Cn1c(Nc2ccc(C(F)(F)F)cc2)nc2cc(Oc3ccnc(-c4ncc(C(F)(F)F)[nH]4)c3)ccc21 + COc1ccc(COc2ccc(Cc3cnc(N)nc3N)cc2OC)cc1 [GW2580] (first compound 0.08 µM, partner dose 1 µM) | 395
COCC[n+]1c2c(n(Cc3cnccn3)c1C)C(=O)c1ccccc1C2=O + COc1ccc(COc2ccc(Cc3cnc(N)nc3N)cc2OC)cc1 [GW2580] (first compound 0.0004 µM, partner dose 1 µM) | 360
Cc1ccc(NC(=O)c2cccc(N(C)C)c2)cc1NC(=O)c1ccc(O)cc1 + COC(=O)c1sccc1S(=O)(=O)Nc1ccc(Nc2ccccc2)cc1OC [GSK0660] (first compound 2 µM, partner dose 1 µM) | 108
